# Data from patent publication US20250019400A1 (SHENZHEN WINKEY TECHNOLOGY CO., LTD, priority 2022, published 2025).
# Test: general procedure: peptide synthesis; Amide Resin
# Details: whole synthesis, scale of the general procedure 5 g resin
row,Substance,final purity (method not given) [%]
1,Ac-SMGALA-NH2,99.4
2,Ac-VKVLQW-NH2,98
3,Ac-WAAPFLRA-NH2,98
